Primary screen of a compound library

The values are deposited in ChEMBL (CHEMBL3988442, “University of Dundee, Small-Polar-MMV Screening Library” (2021)).

The filed quantity is “Percent Effect” (%).
The controls that fix the scale are not given in the record; negative values are as filed.
This is an unselected part of the compounds tested.

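Whole-cell assay for inhibitors of Mycobacterium tuberculosis growth, labelled Cornell in the record; the read-out is not stated. The concentration is filed as 10 mM, unlikely as a test dose, so the dose is not known. Higher means stronger inhibition (inferred from two other growth screens of the library). Size under these conditions: about 53,000 compounds, about 900 of them at 50% or above in at least one test.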

Compound	effect
Cc1cc(C)n(C2CCCN(C(=O)CCc3nccs3)C2)n1 (stereo not shown)	-21.94%
COc1ccc(-c2n[nH]c(C)c2CC(=O)NCCN2CCOCC2)cc1	29.95%
c1cnc(N2CCC(NCc3cnc(C4CCC4)s3)CC2)nc1	28.59%
O=C(O)C(F)(F)F.[H][C@@]12CN(C(=O)COC)CCC[C@]1(C(=O)N(C)C)CN(c1ccccn1)C2	32.4%
COCc1ccc(C(=O)N(CCC#N)Cc2ccccn2)cc1	-20.45%
O=S(=O)(NCC1COc2ccccc2C1)N1CCCCC1 (stereo not shown)	23.41%
CCOCCn1c(=O)n(CCC=C(C)C)c2cc(C(=O)O)cnc21	14.08%
CN(C)CCN(Cc1ccccc1)C(=O)C1=NNC(=O)CC1	-17.7%
O=C(Cc1ccc2c(c1)OCCO2)N1CCCC(n2cncn2)C1 (stereo not shown)	-48.08%
OCc1ccc(Cl)c(NCc2cccnc2)c1	-14.09%
CC(=O)N1CCCC(C(=O)N2CCN(c3cnn(C)c(=O)c3)CC2)C1 (stereo not shown)	-19.1%
O=C(CCc1ccc(Cl)s1)N1CCCC(N2CCNC2=O)C1 (stereo not shown)	11.07%
CCN(CC1CN(Cc2cccc(C#N)c2)CCO1)c1cccnn1 (stereo not shown)	12.36%
Cc1cccc(C)c1OC1CN(C(=O)C2CCN(C(=O)N(C)C)CC2)C1	8.667%
CCC1CN(Cc2nc(C(C)C)no2)CCC(=O)N1Cc1ccccc1 (stereo not shown)	-8.972%
O=C(O)C(F)(F)F.O=C(O)C(F)(F)F.[H][C@@]12COC[C@]1(COc1cccnc1)CN(C1CCC1)C2	-11.73%
Cc1nc(N2CCOc3ccc(CO)cc3C2)c2c(C)noc2n1	12.46%
[H][C@@]12NCCCC[C@]1([H])N(C(=O)c1ccc(OC)cc1)C[C@H]2c1ccccc1	-5.37%
Cn1ccnc1C1CCN(S(=O)(=O)c2ccc3oc(=O)[nH]c3c2)CC1	16.21%
Cc1cc(C)n(CC2CCCCN2C(=O)c2sccc2C#N)n1 (stereo not shown)	5.538%
[H][C@@]12COC[C@@H](C(=O)NC)[C@]1([H])CN(C(=O)c1ccc(CC)cc1)C2	-8.5%
CC(C)N(CC(N)=O)Cc1c(Cl)ccc2cccnc12	8.732%
COCC1CC2(CCN(C(=O)c3cnc4ccccc4c3)CC2)CO1.O=C(O)C(F)(F)F (stereo not shown)	-4.173%
CC(O)CN1CCC(CNCc2cccc(OC(C)C)c2)CC1 (stereo not shown)	-11.69%
O=C(CN1CCCC(c2ccn[nH]2)C1)Nc1nc2c(s1)CCCC2 (stereo not shown)	42.91%
N#Cc1ccnc(N2CCN(CC(O)c3ccc(F)cc3)CC2)c1 (stereo not shown)	11.67%
CC(C)C(=O)N1CCN(C(=O)N(C)C)CC2(CC(=O)N(C)C2)C1 (stereo not shown)	-10.99%
CCC(CC)(CNC(=O)c1cccn1Cc1cccnc1)N(C)C	-29.11%
COC(CNC(=O)C1CCN(S(C)(=O)=O)CC1)c1ccc(C)s1 (stereo not shown)	12.62%
c1cnc(NCc2noc3c2CN(c2cnccn2)CC3)nc1	13.52%
CCc1ccc(Cn2nccc2NC(=O)C2CCS(=O)(=O)C2)cc1 (stereo not shown)	-3.265%
Cc1nc(NC(=O)C(C)N(C)Cc2cccc(C#N)c2)sc1C (stereo not shown)	-17.01%
Cn1c(CN2CCCCCC2)cc(=O)c(O)c1CN1CCCC1	-42.58%
CCc1nnc2n1CCN(C(C(=O)NC1CC1)c1ccc(F)cc1)C2 (stereo not shown)	21.1%
COCc1nc2c(o1)CN(C(=O)NCc1ccccc1)C2	-49.74%
Cn1cccc1C(=O)N1CCC2(CC1)CN(S(C)(=O)=O)c1ccccc12	9.432%
CCOc1ccccc1CC(=O)N1C[C@@H](C(=O)O)[C@H](c2ccncc2)C1	-44.27%
O=C1CN(C(=O)c2ccc(F)cc2)CC(O)CN1Cc1cccs1 (stereo not shown)	0.02782%
Cc1cc(NC(=O)NCC2(O)CCCC2)ccn1	-9.225%
O=C(O)C(F)(F)F.[H][C@@]12CCCO[C@]1([H])[C@H](NC(=O)c1cnoc1C)CN(Cc1ccoc1)C2	-17.68%
CCOCCNS(=O)(=O)c1ccc2c3c1CCCN3C(=O)CO2	-17.29%
COc1ccc(NC(=O)CSc2nc(C)c(C)c(C)c2C#N)cn1	31.39%
Cc1ccc(CN2CCOC3(CCCN(c4cccc(F)c4)C3)C2)o1.O=C(O)C(F)(F)F.O=C(O)C(F)(F)F (stereo not shown)	65.05%
Cc1ccc(S(=O)(=O)NC(=O)C2(c3ccc(F)cc3)CCC2)c(C)c1	8.111%
Cc1cccc(-c2c[nH]c(C3CCCN3C(=O)Cn3cc(C)cn3)n2)c1 (stereo not shown)	-6.395%
CN(C)C(=O)CNC(=O)c1ccn(-c2ccc3ccccn23)n1	8.811%
Cc1nc(Cc2ccccc2)nc2sc(C(=O)O)c(C)c12	-1.748%
CCn1ccc(NC(=O)C2CCC(=O)N2Cc2ccc(C)o2)n1 (stereo not shown)	-11.45%
O=C(O)C(F)(F)F.[H][C@]12CO[C@H](CN(C)C)[C@@]1([H])CCN(C(=O)NCc1cccc(F)c1)C2	-4.48%
O=C1CCNc2cc3c(cc2CN1Cc1ccco1)OCO3	-55.55%
CC(C(=O)NC1CCCCC1)N1CCc2[nH]nc(C(F)(F)F)c2C1 (stereo not shown)	12.66%
Cc1cnc(C(=O)N2CCCN(Cc3csc(C)n3)CC2)cn1	22.68%
O=C(c1ccc(S(=O)(=O)NCc2ccon2)cc1)N1CCCCCC1	-12.11%
COCc1nc(N2CCC(CCO)CC2)c2cnn(C)c2n1	-6.997%
CCN(C)c1ccc(CNC(=O)c2cc(C(N)=O)cs2)cc1F	30.59%
CC(=O)NCCNC(=O)c1cccc(Cn2nc(C)cc2C)c1	-8.843%
Cc1ccsc1C(=O)N1Cc2ccccc2C2(CCN(C)CC2)C1	-4.136%
O=C(O)C(F)(F)F.[H][C@]12CCC[C@@H](CN3CCOCC3)[C@@]1([H])CN(c1ccc(C)nn1)C2	-44.55%
CN(C)C(CNC(=O)c1cccc(-n2cnnn2)c1)c1ccccc1Cl (stereo not shown)	-2.094%
COc1ccccc1[C@@H]1CN(C(=O)c2csc(C)n2)C[C@H]1C(=O)O	8.473%
CC(=O)Nc1nc(C(=O)NCc2ccc(OC(C)C)nc2)cs1	-25.81%
CCN(CC)CCCN1CCN(c2nc(C)cnc2C)CC1	16.59%
O=C(c1cn(-c2ccc(C(F)(F)F)cn2)nn1)N1CCCCCC1	22.58%
Cc1nn(C)c(C)c1CN(C(=O)c1cc(Cl)c[nH]c1=O)C(C)C	1.032%
CC(=O)Nc1ccc2c(c1)C1(CCOCC1)C(=O)N2c1ccsc1	-16.49%
Cc1cc(C)c2nc(CNC3CCCNC3=O)cc(O)c2c1 (stereo not shown)	-22.01%
Cc1nc(NCc2nnc(C)n2C)c2c(CC(C)C)csc2n1	-3.334%
O=C(NCCCO)C1(CC2CC(c3ccc(F)cc3)=NO2)CCOCC1 (stereo not shown)	26.34%
CCC(=O)N1CCC2(COCc3c(C)nc(N(C)C)nc32)C1 (stereo not shown)	10.06%
Cc1nc(CCNC(=O)C(N)c2c(C)n[nH]c2C)sc1C (stereo not shown)	-7.161%
c1cnc(N2CCN(Cc3nnnn3C3CC3)CC2)nc1	-42.2%
[H][C@]12CC[C@]([H])(CN(CCC(=O)NCc3ccco3)C1)N(CC=C(C)C)C2	-2.571%
Cc1nc(-c2ccccc2C)n(CC(=O)NC(C)C2CC2)n1 (stereo not shown)	-10.47%
COc1ccc(Cl)cc1C(=O)N1CCCC(n2nc(C)nc2C)C1 (stereo not shown)	-37.92%
Cc1ccc(CN2CCCn3c(nc(Cn4ccnc4)cc3=O)C2)o1	-4.278%
O=C1CN(c2ccc(CNC(=O)Nc3nccs3)cc2)CCN1	-6.958%

The first 5 entries again:

Cc1cc(C)n(C2CCCN(C(=O)CCc3nccs3)C2)n1 (stereo not shown) read -21.94%.
COc1ccc(-c2n[nH]c(C)c2CC(=O)NCCN2CCOCC2)cc1 read 29.95%.
c1cnc(N2CCC(NCc3cnc(C4CCC4)s3)CC2)nc1 read 28.59%.
O=C(O)C(F)(F)F.[H][C@@]12CN(C(=O)COC)CCC[C@]1(C(=O)N(C)C)CN(c1ccccn1)C2 read 32.4%.
COCc1ccc(C(=O)N(CCC#N)Cc2ccccn2)cc1 read -20.45%.